These are yes or no findings as the source states them, for the method shown. In cells and extracts the contact can be indirect. Some results given as binding are weak or reduced against the parent protein; the word gives no strength. Where a sequence is shown, tags or fusion partners need not be part of it.
Target: Kelch-like ECH-associated protein 1 (FLAG-Keap1) (UniProt Q14145)
Assay: co-IP; exogenous Flag-Keap1 with His-MCM3/HA-Nrf2 in 293T treated with or without PQQ; IP lysis buffer (20 mM Tris pH 7.8, 150 mM NaCl, 0.2% NP-40, 10% glycerol), antibodies on Protein A/G agarose, 4°C overnight; immunoblotting

The chains behind the UniProt entries cited, without tags or fusion partners.
UniProt Q14145: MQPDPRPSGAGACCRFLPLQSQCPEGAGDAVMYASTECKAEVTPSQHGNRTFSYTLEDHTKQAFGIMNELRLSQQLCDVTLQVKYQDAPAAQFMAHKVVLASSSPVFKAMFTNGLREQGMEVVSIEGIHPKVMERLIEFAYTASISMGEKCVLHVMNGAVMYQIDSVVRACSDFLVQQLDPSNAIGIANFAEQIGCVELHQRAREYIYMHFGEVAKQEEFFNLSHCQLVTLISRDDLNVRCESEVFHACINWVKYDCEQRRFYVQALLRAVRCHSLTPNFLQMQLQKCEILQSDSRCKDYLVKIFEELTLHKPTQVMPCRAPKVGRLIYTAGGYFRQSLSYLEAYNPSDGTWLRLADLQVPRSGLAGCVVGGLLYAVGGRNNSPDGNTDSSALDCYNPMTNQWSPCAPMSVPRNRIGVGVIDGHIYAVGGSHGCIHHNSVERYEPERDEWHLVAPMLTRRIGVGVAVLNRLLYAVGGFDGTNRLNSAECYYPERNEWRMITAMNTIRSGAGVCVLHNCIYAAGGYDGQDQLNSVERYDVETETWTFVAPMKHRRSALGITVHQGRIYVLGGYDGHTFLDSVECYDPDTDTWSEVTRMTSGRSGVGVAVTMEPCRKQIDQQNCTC

B1: minichromosome maintenance complex component 3 (His-MCM3) (protein, UniProt P25205 1-808)
chain: MAGTVVLDDVELREAQRDYLDFLDDEEDQGIYQSKVRELISDNQYRLIVNVNDLRRKNEKRANRLLNNAFEELVAFQRALKDFVASIDATYAKQYEEFYVGLEGSFGSKHVSPRTLTSCFLSCVVCVEGIVTKCSLVRPKVVRSVHYCPATKKTIERRYSDLTTLVAFPSSSVYPTKDEENNPLETEYGLSVYKDHQTITIQEMPEKAPAGQLPRSVDVILDDDLVDKAKPGDRVQVVGTYRCLPGKKGGYTSGTFRTVLIACNVKQMSKDAQPSFSAEDIAKIKKFSKTRSKDIFDQLAKSLAPSIHGHDYVKKAILCLLLGGVERDLENGSHIRGDINILLIGDPSVAKSQLLRYVLCTAPRAIPTTGRGSSGVGLTAAVTTDQETGERRLEAGAMVLADRGVVCIDEFDKMSDMDRTAIHEVMEQGRVTIAKAGIHARLNARCSVLAAANPVYGRYDQYKTPMENIGLQDSLLSRFDLLFIMLDQMDPEQDREISDHVLRMHRYRAPGEQDGDAMPLGSAVDILATDDPNFSQEDQQDTQIYEKHDNLLHGTKKKKEKMVSAAFMKKYIHVAKIIKPVLTQESATYIAEEYSRLRSQDSMSSDTARTSPVTARTLETLIRLATAHAKARMSKTVDLQDAEEAVELVQYAYFKKVLEKEKKRKKRSEDESETEDEEEKSQEDQEQKRKRRKTRQPDAKDGDSYDPYDFSDTEEEMPQVHTPKTADSQETKESQKVELSESRLKAFKVALLDVFREAHAQSIGMNRLTESINRDSEEPFSSVEIQAALSKMQDDNQVMVSEGIIFLI
Question: How did the binding turn out when B1 was run?
Answer: The binding was “binds”.

Reference: paper PMC10497824
